Values joined by “and” are separate entries in the source; they are usually repeats but may differ in a detail not shown here. Equal values may be shown once. The list shows a part of the results. Many values rest on one well or one pass, so single values are uncertain.

For 37 compounds, cell viability results are on record in the supplement of paper PMC12873370.

The subject of assay [1] is MEPP (mouse ovarian epithelium Trp53/Pten KO). Briefly: cell viability relative to untreated (fraction); higher = less growth inhibition. The settings on record: 5 µM; 3 days.
For assay [2], the system named is PREPP (mouse prostate epithelium Trp53/Pten KO). The description is as above. To be noted: 5 µM; 3 days.

For `O=C(O)C(O)O`, the cell viability in assay [1] was 0.814; in assay [2] it was 1.1.

Take `C[S+](CC[C@H](N)C(=O)[O-])C[C@H]1O[C@@H](n2cnc3c(N)ncnc32)[C@H](O)[C@@H]1O` (some centres undefined): the cell viability in assay [1] is 0.784 and 1.01; in assay [2] it was 1.02 and 0.983.

On to `NC(=O)CCC(N)C(=O)O` (centres undefined), for which the cell viability in assay [1] worked out at 1.18; in assay [2] it was 1.05.

With `CCOC(=O)CCC(=O)O[C@H]1[C@H](O[C@@H]2[C@@H](C)[C@H](O[C@H]3C[C@@](C)(OC)[C@@H](O)[C@H](C)O3)[C@@H](C)C(=O)O[C@H](CC)[C@@](C)(O)[C@H](O)[C@@H](C)C(=O)[C@H](C)C[C@@]2(C)O)O[C@H](C)C[C@@H]1N(C)C`, the cell viability was 0.834 in assay [1] and 0.773 in assay [2].

Take `CC1=NCC[C@@H](C(=O)O)N1`: the cell viability in assay [1] worked out at 0.888; in assay [2], 1.33.

On to `CC[C@H]1OC(=O)[C@H](C)[C@@H](O[C@H]2C[C@@](C)(OC)[C@@H](O)[C@H](C)O2)[C@H](C)[C@@H](O[C@@H]2O[C@H](C)C[C@H](N(C)C)[C@H]2O)[C@](C)(O)C[C@@H](C)C(=O)[C@H](C)[C@@H](O)[C@]1(C)O`, for which the cell viability in assay [1] is 0.831; in assay [2], 0.816.

For the compound `CC(C)(c1ccc(O)cc1)c1ccc(O)cc1`, the values for the cell viability in assay [1] and in assay [2] were 0.863 and 0.989, respectively.

With `O=C(/C=C/c1ccc(O)cc1)CC(=O)/C=C/c1ccc(O)cc1`, the cell viability was 1.34 in assay [1] and 1.03 in assay [2].

Take `O=C1OCCN1/N=C/c1ccc([N+](=O)[O-])o1`: the cell viability in assay [1] came to 1.18; in assay [2] it was 0.816.

Turning to `OC[C@H]1O[C@@H](Oc2cc(O)cc(/C=C/c3ccc(O)cc3)c2)[C@H](O)[C@@H](O)[C@@H]1O`, the cell viability in assay [1] worked out at 1.36; in assay [2] it was 0.973.

Turning to `Nc1ccc(S(=O)(=O)Nc2nccs2)cc1`, the figures for the cell viability in assay [1] and in assay [2] were 0.929 and 1.01, respectively.

In the case of `OC[C@@H](O)[C@@H](O)[C@H](O)[C@H](O)CO`, the figures for the cell viability in assay [1] and in assay [2] were 0.906 and 0.89, respectively.

On to `CC(C)CC(O)C(=O)O` (centres undefined), for which the cell viability in assay [1] was 0.92; in assay [2], 0.991.

In the case of `CC(=O)O[C@@H]1CC[C@@]2(C)C(CC[C@]3(C)C2C(=O)C=C2C4[C@@H](C)[C@H](C)CC[C@]4(C)CC[C@]23C)[C@@]1(C)C(=O)O` (some centres undefined), the cell viability in assay [1] turned out to be 0.816; in assay [2], 0.872.

Regarding `CC(=O)O[C@]1(C(C)=O)CC[C@H]2[C@@H]3C[C@H](C)C4=CC(=O)CC[C@]4(C)[C@H]3CC[C@@]21C`, the cell viability came out at 1.02 in assay [1] and 0.928 in assay [2].

As for `O=C(CO)[C@@H](O)[C@H](O)[C@H](O)CO`, the cell viability in assay [1] is 1.29 and 1.16; in assay [2], 0.929 and 0.863.

For `C/C=C(\C)C(=O)OC1c2c(ccc3ccc(=O)oc23)OC(C)(C)C1OC(=O)/C(C)=C/C` (centres undefined), the cell viability was found to be 1.01 in assay [1] and 1.23 in assay [2].

As to `COc1cc(/C=C/C(=O)N2CCC=CC2=O)cc(OC)c1OC`, the values for the cell viability in assay [1] and in assay [2] were 1.05 and 0.872, respectively.

Take `C[C@@H]1O[C@@H](O[C@@H]2[C@@H](O)[C@H](O)[C@@H](CO)O[C@H]2c2c(O)cc(O)c3c(=O)cc(-c4ccc(O)cc4)oc23)[C@H](O)[C@H](O)[C@H]1O`: the cell viability in assay [1] worked out at 0.926; in assay [2], 0.853.

For the compound `O=C(O)CC(=O)C(=O)O`, the cell viability was 1.18 in assay [1] and 1.06 in assay [2].

Regarding `COc1ccc2ccc(=O)oc2c1`, the cell viability worked out at 0.933 in assay [1] and 1.07 in assay [2].

Take `Nc1ncnc2c1ncn2[C@@H]1O[C@H](COP(=O)(O)OP(=O)(O)O)[C@@H](O)[C@H]1O`: the values for the cell viability in assay [1] and in assay [2] were 1.01 and 0.942, respectively.

With `Cn1c(=O)c2nc[nH]c2n(C)c1=O`, the cell viability in assay [1] worked out at 1.27; in assay [2], 0.924.

In the case of `OCc1ccccc1O`, the cell viability in assay [1] came to 0.923; in assay [2] it was 1.14.

Take `Oc1cc(O)c2c(c1)O[C@H](c1cc(O)c(O)c(O)c1)[C@H](O)C2`: the cell viability in assay [1] turned out to be 0.842; in assay [2] it was 1.31.

Take `C[C@@H](O)[C@H]1C(=O)N2C(C(=O)O)=C(S[C@@H]3CN[C@H](C(=O)N(C)C)C3)[C@H](C)[C@H]12`: the cell viability was 0.993 in assay [1] and 0.987 in assay [2].

`CC(C)=CCC/C(C)=C/CO`: the cell viability came out at 1.03 in assay [1] and 0.824 in assay [2].

Turning to `CCCCCCCCCCCCN1CCCCCC1=O`, the cell viability worked out at 0.968 in assay [1] and 1.03 in assay [2].

As to `CC(CN(C)C)CN1c2ccccc2CCc2ccccc21` (centres undefined), the cell viability was 1.13 in assay [1] and 0.921 in assay [2].

With `O=C(O)C1=C(CSc2nnnn2CS(=O)(=O)O)CS[C@@H]2[C@H](NC(=O)[C@H](O)c3ccccc3)C(=O)N12`, the cell viability in assay [1] amounted to 0.999; in assay [2], 0.628.

As for `CC1(C)[C@@H](OC(=O)CCC(=O)O)CC[C@]2(C)[C@H]3C(=O)C=C4[C@@H]5C[C@@](C)(C(=O)O)CC[C@]5(C)CC[C@@]4(C)[C@]3(C)CC[C@@H]12`, the cell viability in assay [1] was 1.29; in assay [2] it was 0.948.

Take `O=C(O)CCCCCCCCC(=O)O`: the cell viability amounted to 1.2 in assay [1] and 0.882 in assay [2].

Turning to `COc1ccc(CO)cc1OC`, the cell viability amounted to 0.925 in assay [1] and 1.02 in assay [2].

Turning to `O=C(O)c1ncccc1O`, the figures for the cell viability in assay [1] and in assay [2] were 0.94 and 1.1, respectively.

As for `C[C@@H](O)[C@H]1C(=O)N2C(C(=O)[O-])=C(SC3Cn4cnc[n+]4C3)[C@H](C)[C@H]12` (some centres undefined), the cell viability was determined as 1.11 in assay [1] and 0.765 in assay [2].

For the compound `Cl.N=C(N)NCCC[C@H](N)C(=O)O`, the cell viability in assay [1] is 0.752 and 1.29; in assay [2], 0.922 and 1.08.

In the case of `COC1=C2C[C@@H](C)C[C@H](OC)[C@H](O)[C@@H](C)/C=C(\C)[C@H](OC(N)=O)[C@@H](OC)/C=C\C=C(/C)C(=O)NC(=CC1=O)C2=O`, the cell viability in assay [1] is 1.04; in assay [2], 0.41.
